{"source": "PubChem BioAssay AID493246, Drosophila RNAi Screening Center | 2011", "aim": "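Genes fly cells need to grow and stay alive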 (primary screen)", "cell system": "Drosophila Kc and S2R+ cells", "knock-down reagent": "long dsRNA against Drosophila genes", "detection": "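Cell number per well after knock-down, printed as raw plate values; calls were based on per-plate z-scores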", "direction": "Kc cell number and S2R+ cell number: higher = more cells remaining", "rule for the call": "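Active when the per-plate z-score of cell number is 3 or more in the direction of fewer cells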", "note": "In all, the deposit lists about 21,000 reagents; shown is an unselected part of those with a known target gene and a result. Over the whole deposit, 429 (2%) got an active call. 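Values are raw and not normalised between plates; calls rest on per-plate z-scores that were not deposited.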 No sequences are given here. The record does not give: the amount of reagent, the time to read-out."}
{"gene knocked down":"Hmt4-20 (Histone methyltransferase 4-20)","amplicon":"DRSC18482","Kc cell number, rep 1":4.73e5,"S2R+ cell number, rep 1":6.96e5,"activity call":"inactive"}
{"gene knocked down":"CG10565","amplicon":"DRSC11620","Kc cell number, rep 1":1.53e6,"Kc cell number, rep 2":1.58e6,"S2R+ cell number, rep 1":1.41e6,"S2R+ cell number, rep 2":1.42e6,"activity call":"inactive"}
{"gene knocked down":"Klp54D (Kinesin-like protein at 54D)","amplicon":"DRSC07450","Kc cell number, rep 1":1.50e6,"Kc cell number, rep 2":1.59e6,"S2R+ cell number, rep 1":1.19e6,"S2R+ cell number, rep 2":1.29e6,"activity call":"inactive"}
{"gene knocked down":"Gale (UDP-galactose 4'-epimerase)","amplicon":"DRSC08234","Kc cell number, rep 1":1.27e6,"Kc cell number, rep 2":1.37e6,"S2R+ cell number, rep 1":1.06e6,"S2R+ cell number, rep 2":1.10e6,"activity call":"inactive"}
{"gene knocked down":"Cpr78Cc (Cuticular protein 78Cc)","amplicon":"DRSC11846","Kc cell number, rep 1":1.52e6,"Kc cell number, rep 2":1.58e6,"S2R+ cell number, rep 1":1.24e6,"S2R+ cell number, rep 2":1.42e6,"activity call":"inactive"}

Records listed so far whose target name starts with C or c (2):
{"gene knocked down":"CG10565","amplicon":"DRSC11620","Kc cell number, rep 1":1.53e6,"Kc cell number, rep 2":1.58e6,"S2R+ cell number, rep 1":1.41e6,"S2R+ cell number, rep 2":1.42e6,"activity call":"inactive"}
{"gene knocked down":"Cpr78Cc (Cuticular protein 78Cc)","amplicon":"DRSC11846","Kc cell number, rep 1":1.52e6,"Kc cell number, rep 2":1.58e6,"S2R+ cell number, rep 1":1.24e6,"S2R+ cell number, rep 2":1.42e6,"activity call":"inactive"}

More entries follow.
{"gene knocked down":"Tsp86D (Tetraspanin 86D)","amplicon":"DRSC15607","Kc cell number, rep 1":1.60e6,"Kc cell number, rep 2":1.69e6,"S2R+ cell number, rep 1":1.40e6,"S2R+ cell number, rep 2":1.52e6,"activity call":"inactive"}
{"gene knocked down":"CG9377","amplicon":"DRSC03217","Kc cell number, rep 1":1.33e6,"Kc cell number, rep 2":1.43e6,"S2R+ cell number, rep 1":1.25e6,"S2R+ cell number, rep 2":1.37e6,"activity call":"inactive"}
{"gene knocked down":"yellow-b","amplicon":"DRSC03639","Kc cell number, rep 1":1.36e6,"Kc cell number, rep 2":1.43e6,"S2R+ cell number, rep 1":1.37e6,"S2R+ cell number, rep 2":1.43e6,"activity call":"inactive"}
{"gene knocked down":"APC7 (Anaphase Promoting Complex subunit 7)","amplicon":"DRSC17937","Kc cell number, rep 1":5.31e5,"S2R+ cell number, rep 1":8.87e5,"activity call":"inactive"}
{"gene knocked down":"mthl3 (methuselah-like 3)","amplicon":"DRSC06997","Kc cell number, rep 1":1.30e6,"Kc cell number, rep 2":1.39e6,"S2R+ cell number, rep 1":1.07e6,"S2R+ cell number, rep 2":1.13e6,"activity call":"inactive"}
{"gene knocked down":"Membrin","amplicon":"DRSC10448","Kc cell number, rep 1":1.59e6,"Kc cell number, rep 2":1.67e6,"S2R+ cell number, rep 1":1.15e6,"S2R+ cell number, rep 2":1.23e6,"activity call":"inactive"}
{"gene knocked down":"CG14968","amplicon":"DRSC08427","Kc cell number, rep 1":1.61e6,"Kc cell number, rep 2":1.45e6,"S2R+ cell number, rep 1":1.07e6,"S2R+ cell number, rep 2":1.35e6,"activity call":"inactive"}
